Assay results taken from PubChem BioAssay (EPA / NIEHS).
The shares of active, inactive and inconclusive entries below differ from those in the screen. Potencies of inconclusive entries are doubtful fits and often do not repeat. Calls of active or inactive are those of the source. Rule for the calls: active = hit-call score of the fitted dose curve at least 0.9, where 1 is the maximum; inconclusive = response in the unintended direction; inactive = score below 0.9.

Amino acid sequences for entries named in this document (tags omitted). A change or cut given only in a name is not applied to a line headed by its entry.
UniProt P29323: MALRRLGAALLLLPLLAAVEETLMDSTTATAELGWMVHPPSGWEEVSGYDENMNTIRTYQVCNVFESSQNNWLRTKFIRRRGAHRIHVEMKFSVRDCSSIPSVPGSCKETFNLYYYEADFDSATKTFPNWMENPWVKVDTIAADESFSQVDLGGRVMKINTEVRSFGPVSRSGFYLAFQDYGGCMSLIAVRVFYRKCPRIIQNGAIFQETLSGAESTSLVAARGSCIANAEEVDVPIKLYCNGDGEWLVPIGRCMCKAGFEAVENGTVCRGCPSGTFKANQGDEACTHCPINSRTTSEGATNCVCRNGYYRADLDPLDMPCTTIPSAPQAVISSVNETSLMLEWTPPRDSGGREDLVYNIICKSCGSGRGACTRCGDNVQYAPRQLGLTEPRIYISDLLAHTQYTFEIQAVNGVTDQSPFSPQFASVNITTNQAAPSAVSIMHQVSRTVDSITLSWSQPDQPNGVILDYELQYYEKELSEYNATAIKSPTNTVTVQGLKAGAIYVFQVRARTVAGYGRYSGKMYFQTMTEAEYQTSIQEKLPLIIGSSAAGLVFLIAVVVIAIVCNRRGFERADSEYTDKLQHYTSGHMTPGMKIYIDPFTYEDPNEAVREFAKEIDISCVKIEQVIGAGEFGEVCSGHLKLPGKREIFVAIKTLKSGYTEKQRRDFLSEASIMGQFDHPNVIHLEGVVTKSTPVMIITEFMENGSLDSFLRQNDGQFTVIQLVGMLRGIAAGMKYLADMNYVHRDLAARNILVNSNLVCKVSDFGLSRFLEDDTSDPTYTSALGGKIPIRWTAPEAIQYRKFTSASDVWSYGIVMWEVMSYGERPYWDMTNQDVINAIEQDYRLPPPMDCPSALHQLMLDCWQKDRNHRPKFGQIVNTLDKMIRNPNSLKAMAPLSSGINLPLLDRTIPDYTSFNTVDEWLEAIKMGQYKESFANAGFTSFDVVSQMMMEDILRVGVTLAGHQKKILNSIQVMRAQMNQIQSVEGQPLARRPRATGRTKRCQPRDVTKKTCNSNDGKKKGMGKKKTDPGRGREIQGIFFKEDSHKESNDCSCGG

Each compound was assayed against human Ephrin type-B Receptor 2 (EphB2), EPHB2 (gene 2048) (UniProt P29323) (assay: NVS_ENZ_hEphB2: NovaScreen (NVS) Enzymatic Assay for human Ephrin type-B Receptor 2 (EphB2) (AID 2283156)).
Procedure: NVS_ENZ_hEphB2 is a biochemical, single-readout assay that uses extracted gene-proteins in a cell-free assay. Measurements were taken 1 hour after chemical dosing in a 384-well plate.NVS_ENZ_hEphB2 is one of one assay component(s) measured or calculated from the NVS_ENZ_hEphB2 assay. It is designed to make measurements of enzyme activity, a form of enzyme reporter, as detected with fluorescence intensity signals by Fluorescence and electrophoretic mobility shift technology.Data from the assay component NVS_ENZ_hEphB2 was analyzed into 1 assay endpoint. This assay endpoint, NVS_ENZ_hEphB2, was analyzed in the positive analysis fitting direction relative to DMSO as the negative control and baseline of activity. Using a type of enzyme reporter, loss-of-signal activity can be used to understand changes in the enzymatic activity as they relate to the gene EPHB2. Furthermore, this assay endpoint can be referred to as a primary readout, because this assay has produced multiple assay endpoints where this one serves a enzymatic activity function. To generalize the intended target to other relatable targets, this assay endpoint is annotated to the kinase intended target family, where the subfamily is receptor tyrosine kinase.
Binding assays used specific radioligands (tritiated, iodinated) with non-radioactive competitive displacement ligands in agonist or antagonist protocols (as indicated) and various reference compounds and inhibitors to titrate specific binding to receptors and transporters. Most enzyme assays (CYPs, kinases, phosphatases, proteases, HDACs) used recombinant protein and specific substrates (fluorescence mostly, some colorimetric and radioactive) and inhibitors, followed by a biochemical separation of substrate and product. All assays for the biochemical HTS were initially run in duplicate at a single concentration (10 uM for CYP450 assays and 25 uM for all others). Assay-chemical combinations meeting a pre-defined threshold (e.g., 30% inhibition and other criteria defined below) were then run in singleton concentration-response format with maximum concentration of 20 uM for CYPs and 50 uM for all others. Each assay was run with positive and negative controls, and concurrent controls on every plate. The follow-up (secondary) screen tested active chemical-pairs in concentration series, as well as a few additional assays not tested in the primary screen, some selected negative inactives, and several cases re-run in the concentration series for confirmatory purposes.

Structure (SMILES)	AC50	outcome
CC[C@H](C)[C@H]1O[C@]2(C=C[C@@H]1C)C[C@@H]1C[C@@H](C/C=C(\C)[C@@H](O[C@H]3C[C@H](OC)[C@@H](O[C@H]4C[C@H](OC)[C@@H](NC)[C@H](C)O4)[C@H](C)O3)[C@@H](C)/C=C/C=C3\CO[C@@H]4[C@H](O)C(C)=C[C@@H](C(=O)O1)[C@]34O)O2	inconclusive: 26.7 µM	
O=C(O)C(Cl)(Cl)Cl		inactive
CC[C@H](C)[C@H]1O[C@]2(C=C[C@@H]1C)C[C@@H]1C[C@@H](C/C=C(\C)[C@@H](O[C@H]3C[C@H](OC)[C@@H](O[C@H]4C[C@H](OC)[C@@H](O)[C@H](C)O4)[C@H](C)O3)[C@@H](C)/C=C/C=C3\CO[C@@H]4[C@H](O)C(C)=C[C@@H](C(=O)O1)[C@]34O)O2 (tested in a mixture with another compound)	inconclusive: 17.8 µM	
N#Cc1cccnc1	inconclusive: 6.03 µM	
Oc1ccc(Cl)cc1Cc1ccccc1		inactive
CCCCCCCc1ccc(O)cc1	inconclusive: 6.99 µM	
O=C(N[C@H]1CN2CCC1CC2)c1ccc2c(c1)OCCO2	inconclusive: 25 µM	
CO/N=C(/C1=NOCCO1)c1ccccc1Oc1ncnc(Oc2ccccc2Cl)c1F	inconclusive: 25 µM	
ClCC(Cl)CCl	inconclusive: 11.8 µM	
C[C@]12CCC(=O)C[C@@H]1CC[C@@H]1[C@@H]2CC[C@]2(C)[C@@H](O)CC[C@@H]12	inconclusive: 21.8 µM	
CCCN(CCC)c1c([N+](=O)[O-])cc(S(N)(=O)=O)cc1[N+](=O)[O-]		inactive
CC1(C)C(C=C(Cl)Cl)C1C(=O)OC(C#N)c1cccc(Oc2ccccc2)c1 (stereo unspecified)	inconclusive: 25 µM	
COP(N)(=O)SC (stereo unspecified)		inactive
Oc1ccc(C(c2ccc(O)cc2)(C(F)(F)F)C(F)(F)F)cc1		inactive
CCOCN(C(=O)CCl)c1c(C)cccc1CC		inactive
CCNS(=O)(=O)C(F)(F)C(F)(F)C(F)(F)C(F)(F)C(F)(F)C(F)(F)C(F)(F)C(F)(F)F	inconclusive: 0.393 µM	

Arranged by count of non-hydrogen atoms (descending): 3 of the compounds above.
Structure (SMILES)	AC50	outcome
CC[C@H](C)[C@H]1O[C@]2(C=C[C@@H]1C)C[C@@H]1C[C@@H](C/C=C(\C)[C@@H](O[C@H]3C[C@H](OC)[C@@H](O[C@H]4C[C@H](OC)[C@@H](NC)[C@H](C)O4)[C@H](C)O3)[C@@H](C)/C=C/C=C3\CO[C@@H]4[C@H](O)C(C)=C[C@@H](C(=O)O1)[C@]34O)O2	inconclusive: 26.7 µM	
CC1(C)C(C=C(Cl)Cl)C1C(=O)OC(C#N)c1cccc(Oc2ccccc2)c1 (stereo unspecified)	inconclusive: 25 µM	
O=C(O)C(Cl)(Cl)Cl		inactive
